Source: patent US4605655A, “Antipsychotic 1-fluorophenylbutyl-4-(2-pyrimidinyl)piperazine derivatives” (Bristol-Myers Company, priority 1984, dated 1986)

Biological target: Dopamine receptor (striatal tissue)
Assay: Dopamine (DA) receptor binding vs. [^3 H]spiperone
Conditions: read-out: DA Binding (vs. [^3 H]spip.) IC50
From the text: As further indication of the psychotropic activity and specificity of the instant compounds, state of the art in vitro central nervous system receptor binding methodology can be employed. […] Inhibition of radiolabeled ligand binding to such specific high affinity sites is considered a measure of the compound's ability to affect corresponding central nervous system function or cause side effects in vivo. This principal is employed in the following assays which are given by way of example.
Dopamine Burt, et al., Molec. Pharmacol., 12, 800

CSc1ccc2c(c1)N(CCC1CCCCN1C)c1ccccc1S2 (stereo not shown) [Thioridazine, reference compound] showed an IC50 of 67 nM.
